# Measurements published in patent publication US20240309066A1, “MEANS AND METHODS FOR THE TREATMENT OF CALCIUM CRYSTAL DEPOSITION DISEASES” (UNIVERSITEIT MAASTRICHT, priority 2021, published 2024).
# B1: bFetuin: bovine Fetuin (Sigma-Aldrich, #F2379), positive control for precipitation inhibition (protein, UniProt Q58D62 19-387, looked up)
# Fetuin-B: TSPPQPAARPSSLLSLDCNSSYVLDIANDILQDINRDRKDGYVLSLNRVSDAREHRQEAGLGSLFYFTLDVLETGCHVLSRTSWKNCEVRIFHESVYGQCKAIFYINKEKRIFYLPAYNCTLRPVSQSAIIMTCPDCPSTSPYDLSNPRFMETATESLAKYNSESPSKQYSLVKITKTSSQWVFGPAYFVEYLIKESPCVKSEGSSCALESPGSVPVGICHGSLGEPQGNQGKIISVTCSFFNSQAPTPRGENATVNQRPANPSKTEELQQQNTAPTNSPTKAVPKGSVQYLPDWDKKREGSQEKDPVETFPVQLDLTTNPQGESLDVSFLFQEPMEEKVVVLPFPSKEQRSAECPGPAQKGYPFILPS
# Assay: Total calcium, phosphate and protein measurements in pellets of in vitro precipitates
# Assay type: biochemical
# Details: total protein content determination
# Method: To test this, particles were allowed to form for 2 or 24 hours in the presence or absence (control) of bFetuin or the peptide according to SEQ ID NO: 1. and subsequently harvested by centrifugation, washed and dissolved in acid, followed by total calcium, phosphate and protein measurements in the pellet and the supernatant.
# Quantification of deposited calcium was carried out using a calcium determination kit (Randox, London, United Kingdom) according to the manufacturer's instruction, after hydrolysis of mineral deposits in 0.1M HCl. Calcium measurements were normalized to protein content using micro DC Protein Assay (Termo Scientifc, Bleiswijk, the Netherlands). To be able to measure protein content, an equal amount of 0.1M NaOH was used to neutralize the acid and 0.1% SDS (final concentration) was added to lyse cells in the cellular calcification assays.
# Quantification of deposited phosphate was carried out using a phosphate colorimetric assay (Sigma, MK030) according to manufacturer's instruction after solubilisation of precipitates in 0.1M HCL.
row,Molecule,protein incorporated in the pellet
1,"peptide according to SEQ ID NO: 1: circular polypeptide of 30 D-amino acids LIYRQPNCDDPETEEAALVAIDYIAPHGPG, D-Leucine at position 1 linked to D-Glycine at position 30 (head-to-tail cyclic, D-amino acids; listed as Homo Sapiens)",≤ 22%
2,B1,Up to 4%
